Laboratory results published in US20260166021A1, “POLYMORPHIC FORMS OF A SOLUBLE EPOXIDE HYDROLASE INHIBITOR AND FORMULATIONS THEREOF” (EicOsis, LLC, priority 2022, published 2026).
Some results were stated once for a whole list of compounds, not compound by compound.

Experiment: Kinetic solubility in sodium lauryl sulfate (SLS) 60 mM, with XRD of remaining solid
Format: physicochemical
Conditions: room temperature
Protocol: The mixture was stirred at room temperature with astir bar. The samples (n=3) were collected at each predetermined time points (5, 10, 15, 20, 30, 60, 90, 120, and 180 minutes) and centrifuged. The filtrate was analyzed by H PLC to determine solubility, and the remaining solid was analyzed by XRD as appropriate. Three replicates were performed for each condition.
The advantages of achieving higher degree of supersaturation from milled material (by providing larger surface area) and amorphous material (by providing higher solubility) were offset by phase transformation from Form D to Pattern C (i.e. hydrate form).
In each figure, the top spectrum corresponds to pure Form C, the second figure from the top of the figure corresponds to pure Form D, the third spectrum from the top of the figure corresponds to solid collected following 5 minutes of solubilization, the fourth spectrum from the top corresponds to solid collected following 60 minutes of solubilization, the fifth spectrum from the top corresponds to solid collected following 90 minutes of solubilization, and the bottom spectrum corresponds to solid collected following 180 minutes of solubilization. As indicated by these XRD data, the milled and amorphous materials were converted into Pattern C within 5 min after exposure to the dissolution medium. […]

CC[C@H](C)C(=O)N1CCC(NC(=O)Nc2ccc(OC(F)(F)F)c(F)c2)CC1 [micronized Form D, (S)-1-(3-fluoro-4-(trifluoromethoxy)phenyl)-3-(1-(2-methylbutanoyl)piperidin-4-yl)urea]
time to conversion into Pattern C after exposure to the dissolution medium: ≤ 5 min
